Laboratory results: US20230047729 (published 2023)

Test: general procedure: hybrid (solid and solution phase) peptide synthesis; 2-chlorotrityl chloride resin (1.46 mmol/g); DIC/OxymaPure (SPPS); PyBOP/DIEA (fragment coupling in solution)
Conditions: whole synthesis

liraglutide
crude HPLC purity (run 1): 64.5% | crude HPLC purity (run 2): 65.5% | crude HPLC purity (run 3): 67.5%
